{"sequences": {"note": "Protein sequences, listed by entry. Tags and fused reporters are not part of them.", "UniProt Q0JBA9, entry or part of it": "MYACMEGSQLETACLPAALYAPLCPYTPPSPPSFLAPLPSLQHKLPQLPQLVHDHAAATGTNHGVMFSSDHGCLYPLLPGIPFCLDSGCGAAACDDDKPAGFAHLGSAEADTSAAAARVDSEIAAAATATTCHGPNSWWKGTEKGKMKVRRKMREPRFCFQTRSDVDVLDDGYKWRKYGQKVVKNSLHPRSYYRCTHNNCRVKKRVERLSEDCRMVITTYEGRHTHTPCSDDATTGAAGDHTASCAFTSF"}, "source": "paper PMC7819943", "about": "“Rice protein-binding microarrays: a tool to detect cis-acting elements near promoter regions in rice”", "note": "This is one part of the list."}
{"biological_target": "OsWRKY34 (Oryza sativa, UniProt Q0JBA9 1-250)", "assay": "protein-binding microarray (RPBM); PBS, 2% BSA, 51.3 ng/ul salmon testes DNA, 50 uM zinc acetate, 200 nM TF, 25 C, 1 h; high values mean tight binding", "settings": "protein: recombinant; tags: N-terminal polyhistidine and DsRed monomer fusion (pET32a); label: CyDye5-dUTP incorporated in the synthesized complementary strand; 3' TTTTT single-stranded linker to array surface; dsDNA, one strand shown", "outline": "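Binding signal here means per-feature fluorescence intensity in arbitrary units. The values were read on an Axon 4000B scanner after a custom Agilent array, double-stranded by primer extension with Cy5-dUTP, was incubated with 200 nM protein at 25 °C for 1 h in PBS with 2% BSA, salmon testes DNA and 50 µM zinc acetate, then washed. The proteins were transcription factors with an N-terminal polyhistidine tag and DsRed, expressed in E. coli BL21-CodonPlus and purified on Ni–NTA.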"}
{"sequence": "ACAGATAATCACCACCACCAATGTGGACCCACCCATTTTTCGGAGTCACCTAGTGCAG", "binding signal": "8520 fluorescence intensity (a.u.)"}
{"sequence": "CGTCTGGCCCTGCCACATGACATGCATGCGCCACGCACGACGGAGTCACCTAGTGCAG", "binding signal": "8060 fluorescence intensity (a.u.)"}
{"sequence": "CATTCACCTTGTCTCTAGTCCTCGTTCGATTAGCCGGCGACGGAGTCACCTAGTGCAG", "binding signal": "8500 fluorescence intensity (a.u.)"}
{"sequence": "CTCGCGCCACGCCACCCCACTGTCCCTGCACGCTGCAGCTCGGAGTCACCTAGTGCAG", "binding signal": "9990 fluorescence intensity (a.u.)"}
{"sequence": "TTCCTTTTGTCCTCCATGCTCTCTGTATGTCGGTATTTTACGGAGTCACCTAGTGCAG", "binding signal": "10500 fluorescence intensity (a.u.)"}
{"sequence": "TTATTGTGACTTGATTCGTCATTAAATATTTTTAAAATATCGGAGTCACCTAGTGCAG", "binding signal": "8380 fluorescence intensity (a.u.)"}
{"sequence": "ACAATTATGTTACCGCGATCGCGAGATTTCTCTATATCTACGGAGTCACCTAGTGCAG", "binding signal": "8192 fluorescence intensity (a.u.)"}
{"sequence": "GCAAAACCTTCATGCTCATCGATATTACTCTTATCGCCAACGGAGTCACCTAGTGCAG", "binding signal": "9590 fluorescence intensity (a.u.)"}
{"sequence": "ACTGATATCTCTCTAGTCTCTACACCTCTTCTCTTCCCCTCGGAGTCACCTAGTGCAG", "binding signal": "11100 fluorescence intensity (a.u.)"}
{"sequence": "TCCTAGTCGGCGCGTACGCGTCAGGGACGCACGTTTTTTTCGGAGTCACCTAGTGCAG", "binding signal": "10000 fluorescence intensity (a.u.)"}
{"sequence": "ACCACACAACACTGCACTAGTAAACTCTTGCTTCTTCTCTCGGAGTCACCTAGTGCAG", "binding signal": "8790 fluorescence intensity (a.u.)"}
{"sequence": "ATATATTTTCTACGTACTATACTACTACTCATGTAGTTCCCGGAGTCACCTAGTGCAG", "binding signal": "9880 fluorescence intensity (a.u.)"}
{"sequence": "TTTGTGCCCTCAACACCTCGCAGGTTCGACCGGTCGCTTCCGGAGTCACCTAGTGCAG", "binding signal": "8080 fluorescence intensity (a.u.)"}
{"sequence": "CAAAGTCTCAATTTGTCCCAGTTTCTCCCTGTCCACTTCTCGGAGTCACCTAGTGCAG", "binding signal": "8700 fluorescence intensity (a.u.)"}
{"sequence": "TATTTGTCTATAAACTTAGTCAAACTTAAAACAGTTTGACCGGAGTCACCTAGTGCAG", "binding signal": "9860 fluorescence intensity (a.u.)"}
{"sequence": "TTCTGTTTAATCCATCTTGATTGTATTTCATTAGTTGACACGGAGTCACCTAGTGCAG", "binding signal": "10900 fluorescence intensity (a.u.)"}
{"sequence": "AGTCAACAACAGGCGGGAGGAGGGGAGGAGGCGGAGGCAGCGGAGTCACCTAGTGCAG", "binding signal": "12200 fluorescence intensity (a.u.)"}
{"sequence": "ATCCTTTCTTCCTTGCCTAAGTTCATGAGTACCGAAAGGTCGGAGTCACCTAGTGCAG", "binding signal": "9560 fluorescence intensity (a.u.)"}
{"sequence": "GGTCCACTCGAAGAAGGTTTTAGTTGCCATCGCCATTTCCCGGAGTCACCTAGTGCAG", "binding signal": "10700 fluorescence intensity (a.u.)"}
{"sequence": "GTTTCCTGGTAACTTTTCCACCTTTCCATTTCTGCAGAACCGGAGTCACCTAGTGCAG", "binding signal": "8090 fluorescence intensity (a.u.)"}
{"sequence": "ACTTGTTCCCATGCACATATGTGCTTACCTTGTGCCTTGTCGGAGTCACCTAGTGCAG", "binding signal": "8330 fluorescence intensity (a.u.)"}
{"sequence": "TCGGTACTCTTGCTGAAGCAATCCTTTCTTCCTTGCCTAACGGAGTCACCTAGTGCAG", "binding signal": "9140 fluorescence intensity (a.u.)"}
{"sequence": "TTATGTGTGAACCGTACGCTACTATTCATACTTCGAATTTCGGAGTCACCTAGTGCAG", "binding signal": "8320 fluorescence intensity (a.u.)"}
{"sequence": "CGCGTCAATCACGCTAGCCCACCGGCGCCTTTCCGCCACGCGGAGTCACCTAGTGCAG", "binding signal": "8350 fluorescence intensity (a.u.)"}
{"sequence": "TGTTATCCCTTCCCATTCACCTCTCCCATTCCTTCTCTTCCGGAGTCACCTAGTGCAG", "binding signal": "8760 fluorescence intensity (a.u.)"}
{"sequence": "TTCAACGTTTGACCGTCCGTCTTATTTGAAAAATTTTTATCGGAGTCACCTAGTGCAG", "binding signal": "8820 fluorescence intensity (a.u.)"}
{"sequence": "CCGCGGCCCAATAGCTCTTAGCCCATTGCCATCCGCCATCCGGAGTCACCTAGTGCAG", "binding signal": "9820 fluorescence intensity (a.u.)"}
{"sequence": "TTCCATTTCTATATTTTCTTCTATTTTATGTTTTTTACATCGGAGTCACCTAGTGCAG", "binding signal": "8240 fluorescence intensity (a.u.)"}
{"sequence": "CCGCCCACACACCCACCACCATTTCCTCCTCCTTCTTCTACGGAGTCACCTAGTGCAG", "binding signal": "10200 fluorescence intensity (a.u.)"}
{"sequence": "TATTTACAATTGTGCGTATATTATGAGCGTCTGTCTTTGTCGGAGTCACCTAGTGCAG", "binding signal": "9350 fluorescence intensity (a.u.)"}
{"sequence": "CCTATTACGACGTCGCCGGCCACCAGCGCGCCTGCCCGCACGGAGTCACCTAGTGCAG", "binding signal": "8400 fluorescence intensity (a.u.)"}
{"sequence": "GATTTTACCTCAGTTTCCGTTAGCACGCTTTTCAAACTATCGGAGTCACCTAGTGCAG", "binding signal": "8690 fluorescence intensity (a.u.)"}
{"sequence": "CGATCGACAATCTGCTCTATATTTTGCTTCACAGCTTCCGCGGAGTCACCTAGTGCAG", "binding signal": "9740 fluorescence intensity (a.u.)"}
{"sequence": "TCTCATCCGGCCAGGTTCCAAGCAGCCAGAACTTACTTATCGGAGTCACCTAGTGCAG", "binding signal": "9540 fluorescence intensity (a.u.)"}
{"sequence": "CTCTTCCACGTCAACATCCTGCAGGACCAGCTCATCCGCGCGGAGTCACCTAGTGCAG", "binding signal": "8690 fluorescence intensity (a.u.)"}
{"sequence": "GAGAGAGAGAAGTCCAAGCCGCAGAACCATTACAGTGTGCCGGAGTCACCTAGTGCAG", "binding signal": "8530 fluorescence intensity (a.u.)"}
{"sequence": "AATTCTTGCCATTTTGGAGCGGTGCAACTTTTTGCCATATCGGAGTCACCTAGTGCAG", "binding signal": "10200 fluorescence intensity (a.u.)"}
{"sequence": "GCTTGGTGGCAGCGACGACTGTGGTGGAGGTGGTGTCGTCCGGAGTCACCTAGTGCAG", "binding signal": "8240 fluorescence intensity (a.u.)"}
{"sequence": "GGGCTGGAGATGGAGATGGAGATGGAGATGGAGGGTGGGTCGGAGTCACCTAGTGCAG", "binding signal": "8660 fluorescence intensity (a.u.)"}
{"sequence": "CTTAGCAATTATTTTTGTCACATCAGTAGGTTCATTTAACCGGAGTCACCTAGTGCAG", "binding signal": "8230 fluorescence intensity (a.u.)"}
{"sequence": "TGTCGTTGTTATTTACTTATTCCCATGTGAACCTGCTTCTCGGAGTCACCTAGTGCAG", "binding signal": "11900 fluorescence intensity (a.u.)"}
{"sequence": "ACCTAAAAGCGCCAACCGCCGTGACCGTTCCCTGCACCCTCGGAGTCACCTAGTGCAG", "binding signal": "11500 fluorescence intensity (a.u.)"}
